According to PMC3965211:
Results are given in words; binding and its absence hold for the method and conditions named. Binding calls can cover weak binding; strength is not graded here. Where a sequence is shown, tags or fusion partners need not be part of it.

Key:
[1] = target: taxol-stabilised microtubules; assay: single-bead laser trap; as the laser trap, after flow-in of assay buffer with 18 nM dimeric hTpx2; both purified
[2] = target: taxol-stabilised microtubules; assay: single-bead laser trap; motors non-specifically adsorbed to 550 nm polystyrene beads, steered to microtubules; 20 mM Pipes, 2 mM MgSO4, 1 mM ATP, 4 µM taxol; no hTpx2; both purified

B1: Full-length human His6-Kif15 (protein, UniProt Q9NS87 1-1388)
chain: MAPGCKTELRSVTNGQSNQPSNEGDAIKVFVRIRPPAERSGSADGEQNLCLSVLSSTSLRLHSNPEPKTFTFDHVADVDTTQESVFATVAKSIVESCMSGYNGTIFAYGQTGSGKTFTMMGPSESDNFSHNLRGVIPRSFEYLFSLIDREKEKAGAGKSFLCKCSFIEIYNEQIYDLLDSASAGLYLREHIKKGVFVVGAVEQVVTSAAEAYQVLSGGWRNRRVASTSMNRESSRSHAVFTITIESMEKSNEIVNIRTSLLNLVDLAGSERQKDTHAEGMRLKEAGNINRSLSCLGQVITALVDVGNGKQRHVCYRDSKLTFLLRDSLGGNAKTAIIANVHPGSRCFGETLSTLNFAQRAKLIKNKAVVNEDTQGNVSQLQAEVKRLKEQLAELASGQTPPESFLTRDKKKTNYMEYFQEAMLFFKKSEQEKKSLIEKVTQLEDLTLKKEKFIQSNKMIVKFREDQIIRLEKLHKESRGGFLPEEQDRLLSELRNEIQTLREQIEHHPRVAKYAMENHSLREENRRLRLLEPVKRAQEMDAQTIAKLEKAFSEISGMEKSDKNQQGFSPKAQKEPCLFANTEKLKAQLLQIQTELNNSKQEYEEFKELTRKRQLELESELQSLQKANLNLENLLEATKACKRQEVSQLNKIHAETLKIITTPTKAYQLHSRPVPKLSPEMGSFGSLYTQNSSILDNDILNEPVPPEMNEQAFEAISEELRTVQEQMSALQAKLDEEEHKNLKLQQHVDKLEHHSTQMQELFSSERIDWTKQQEELLSQLNVLEKQLQETQTKNDFLKSEVHDLRVVLHSADKELSSVKLEYSSFKTNQEKEFNKLSERHMHVQLQLDNLRLENEKLLESKACLQDSYDNLQEIMKFEIDQLSRNLQNFKKENETLKSDLNNLMELLEAEKERNNKLSLQFEEDKENSSKEILKVLEAVRQEKQKETAKCEQQMAKVQKLEESLLATEKVISSLEKSRDSDKKVVADLMNQIQELRTSVCEKTETIDTLKQELKDINCKYNSALVDREESRVLIKKQEVDILDLKETLRLRILSEDIERDMLCEDLAHATEQLNMLTEASKKHSGLLQSAQEELTKKEALIQELQHKLNQKKEEVEQKKNEYNFKMRQLEHVMDSAAEDPQSPKTPPHFQTHLAKLLETQEQEIEDGRASKTSLEHLVTKLNEDREVKNAEILRMKEQLREMENLRLESQQLIEKNWLLQGQLDDIKRQKENSDQNHPDNQQLKNEQEESIKERLAKSKIVEEMLKMKADLEEVQSALYNKEMECLRMTDEVERTQTLESKAFQEKEQLRSKLEEMYEERERTSQEMEMLRKQVECLAEENGKLVGHQNLHQKIQYVVRLKKENVRLAEETEKLRAENVFLKEKKRSES
For B1, the binding [1] was “binds” and the binding [2] was “binds”.
